# Library screen at single concentrations

Data taken from ChEMBL document CHEMBL3988442, “University of Dundee, Small-Polar-MMV Screening Library” (2021).

Values are the deposited “Percent Effect”, in %. The controls that fix the scale are not given in the record; negative values are as filed. This is an unselected part of the compounds tested.

Mtb glucose medium: 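Whole-cell growth test on Mycobacterium tuberculosis, read after 3 days in glucose-containing 7H9 medium; the read-out is not stated. Tested at 500 µM. Direction is inferred from retests: higher values go with more growth inhibition. Size under these conditions: about 18,000 compounds, about 1,400 of them at 50% or above in at least one test.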
Mtb cholesterol medium: 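Growth of Mycobacterium tuberculosis over 4 days (cholesterol / DPPC medium with tyloxapol); the read-out is not stated. Tested at 500 µM. Direction is inferred from retests: higher values go with more growth inhibition. Of about 18,000 compounds tested this way, about 900 (5%) reached 50% or more in at least one test.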

* OCC1(CO)COC1 : Mtb glucose medium: 2.562%; Mtb cholesterol medium: -2.287%
* OCC(c1ccc(F)cc1)N1CCNCC1 (stereo not given) : Mtb glucose medium: 5.607%; Mtb cholesterol medium: -3.3%
* N#CCC(=O)Nc1ccccc1I : Mtb glucose medium: 23.98%; Mtb cholesterol medium: 11.6%
* NCc1ccc(N2CCNC2=O)cc1 : Mtb glucose medium: -3.356%; Mtb cholesterol medium: 3.548%
* CCS(=O)(=O)N1CCN(C(=O)c2ccccc2O)CC1 : Mtb glucose medium: 2.743%; Mtb cholesterol medium: -7.644%
* CS(=O)(=O)Nc1ccc(Cl)c(C(=O)N2CCOCC2)c1 : Mtb glucose medium: 8.864%; Mtb cholesterol medium: 6.156%
* CCNC(=O)NCCN(C)C : Mtb glucose medium: 18.33%; Mtb cholesterol medium: -13.73%
* CC(C)(C)OC(=O)N[C@@H]1[C@@H]2CNC[C@H]1CS(=O)(=O)C2 : Mtb glucose medium: -9.878%; Mtb cholesterol medium: -18.12%
* CCc1ccccc1NC(=O)CN : Mtb glucose medium: -12.44%; Mtb cholesterol medium: -13.74%
* Cn1nccc1C(=O)Nc1sc2c(c1C#N)CCC2 : Mtb glucose medium: -2.148%; Mtb cholesterol medium: -2.712%
* CN(C)C1(CN)Cc2ccccc2C1 : Mtb glucose medium: 54.85%; Mtb cholesterol medium: 46.99%
* CC1(C)C(=O)NCCN1S(=O)(=O)c1ccccc1 : Mtb glucose medium: 9.029%; Mtb cholesterol medium: 15%
* Cc1c(O)cccc1C(=O)NC1CCOC1 (stereo not given) : Mtb glucose medium: -13.39%; Mtb cholesterol medium: -18.7%
* Cc1noc(C2COCCN2Cc2cccnc2C)n1 (stereo not given) : Mtb glucose medium: 10.81%; Mtb cholesterol medium: 14.77%
* Cn1ccnc(Cl)c1=O : Mtb glucose medium: -1.29%; Mtb cholesterol medium: -5.984%
* COCCN1CCN(CCc2ccncc2)CC1C (stereo not given) : Mtb glucose medium: -0.2684%; Mtb cholesterol medium: -5.903%
* CC(C)N(CCOc1cccc(F)c1)CC(N)=O : Mtb glucose medium: 48.68%; Mtb cholesterol medium: 50.26%
* COC(=O)CSc1nc(N)c2ccsc2n1 : Mtb glucose medium: 74.69%; Mtb cholesterol medium: 99.43%
* CNC(=O)NC(=O)CCN1CCCC(C(F)(F)F)C1 (stereo not given) : Mtb glucose medium: 1.41%; Mtb cholesterol medium: -9.374%
* Cc1noc(CCCNC(=O)c2ccon2)n1 : Mtb glucose medium: 12.78%; Mtb cholesterol medium: -1.437%
* CN(CCC(=O)NC1CC1)CC(=O)NCc1ccco1 : Mtb glucose medium: 5.115%; Mtb cholesterol medium: -10.02%
* CN(CCCOc1ccc(C#N)cc1)CC(N)=O : Mtb glucose medium: 9.33%; Mtb cholesterol medium: -4.085%
* CS(=O)(=O)c1cccc(Oc2nccnc2C#N)c1 : Mtb glucose medium: 10.89%; Mtb cholesterol medium: 13.8%
* Cc1cc(CN2CCc3ncnc(N(C)C)c3C2)no1 : Mtb glucose medium: 14.53%; Mtb cholesterol medium: 1.868%
* Cn1c(C(=O)N2CCCS2(=O)=O)cc2ccccc21 : Mtb glucose medium: 36.55%; Mtb cholesterol medium: 11.95%
* CSc1ncc(CNCC2(O)CNCCOC2)n1C (stereo not given) : Mtb glucose medium: 9.564%; Mtb cholesterol medium: 7.135%
* COCCNC(=O)c1cc2ccncc2[nH]1 : Mtb glucose medium: -9.245%; Mtb cholesterol medium: -19.35%
* O=C(NC1CCCCC12OCCO2)c1ccco1 (stereo not given) : Mtb glucose medium: 19.41%; Mtb cholesterol medium: 17.75%
* CC(C)(C)Oc1ccc(C(=O)N2CC(CO)C2)cn1 : Mtb glucose medium: -12.45%; Mtb cholesterol medium: -18.97%
* CN(Cc1cc[nH]n1)C(=O)CCNS(C)(=O)=O : Mtb glucose medium: -0.02614%; Mtb cholesterol medium: -8.528%
* CCCn1ncc(CN2C[C@H](OCC)[C@@H](O)C2)c1C : Mtb glucose medium: 2.266%; Mtb cholesterol medium: -10.08%
* NC1CCN(C(=O)C2CCCCC2)C1 (stereo not given) : Mtb glucose medium: 33.08%; Mtb cholesterol medium: 15.01%
* COc1cccc(SCC(=O)N[C@@H]2CC[C@@H](N)C2)c1 : Mtb glucose medium: 36.67%; Mtb cholesterol medium: 9.22%
* CCCC(=O)Nc1ccc(N2CCN(C)CC2)cc1 : Mtb glucose medium: -3.91%; Mtb cholesterol medium: -6.179%
* COc1ccc2c(c1)C(=O)NC2 : Mtb glucose medium: 8.468%; Mtb cholesterol medium: -2.793%
* COc1cc(F)ccc1[C@@H](C)O : Mtb glucose medium: -11.08%; Mtb cholesterol medium: -35.03%
* CCn1ncnc1C(NC(=O)CSC)C1CC1 (stereo not given) : Mtb glucose medium: -0.6479%; Mtb cholesterol medium: -6.885%
* O=c1cc2c(n[nH]1)CCOC2 : Mtb glucose medium: 2.674%; Mtb cholesterol medium: 4.461%
* c1cn(CC2CCNC2)nn1 (stereo not given) : Mtb glucose medium: 4.576%; Mtb cholesterol medium: -3.616%
* NC(=O)C1(N)Cc2ccccc2C1 : Mtb glucose medium: 10.67%; Mtb cholesterol medium: 19.89%
* COc1ccc(NC(=O)C(C)n2cccn2)cn1 (stereo not given) : Mtb glucose medium: -237.1%; Mtb cholesterol medium: -271.2%

Repeated from the top, 4 entries:

- OCC1(CO)COC1 | Mtb glucose medium: 2.562%; Mtb cholesterol medium: -2.287%
- OCC(c1ccc(F)cc1)N1CCNCC1 (stereo not given) | Mtb glucose medium: 5.607%; Mtb cholesterol medium: -3.3%
- N#CCC(=O)Nc1ccccc1I | Mtb glucose medium: 23.98%; Mtb cholesterol medium: 11.6%
- NCc1ccc(N2CCNC2=O)cc1 | Mtb glucose medium: -3.356%; Mtb cholesterol medium: 3.548%